PubChem BioAssay AID686938, Drosophila RNAi Screening Center | 2013
Test: 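Fly genes required for calcium entry once internal stores are emptied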 (primary screen). System: Drosophila S2R+ cells. Reagent: long dsRNA against Drosophila genes, about 0.25 µg dsRNA per well, roughly 10,000 cells. Duration: 5 days of knock-down before the calcium assay. Challenge: thapsigargin (SERCA pump blocker) to empty calcium stores; entry signal taken 4 min after adding it. Measurement: 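Duplicate raw fluo-4 intensities per well from a plate reader, at rest and four minutes after thapsigargin emptied calcium stores; entry-to-rest ratio filled for only some wells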. Scale: calcium entry signal: higher = stronger calcium signal after store depletion; entry to resting ratio: higher = more calcium entry relative to resting level; resting calcium signal: higher = higher resting calcium signal. Call rule: 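Called when the plate z-score of the entry-to-rest ratio, mean of duplicates, falls below −3; wells with low overall dye signal (Fmax z below −2) or more than five off-targets excluded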. Meaning of the calls: active = strongly reduced calcium entry; inactive = no strong reduction.
The screen tested about 23,000 reagents; this is a random part of those that have a named target and a result. Over the whole deposit, 75 (0.33%) were called active. 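Raw plate signals without normalisation; calls rest on plate z-scores that were not deposited; ratio present for only 364 wells.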 The numbers tell different reagents against one gene apart. A plus sign joins genes that one reagent is predicted to hit. The record does not give: the dose of the treatment.

| predicted target | reagent | calcium entry signal, replicate 1 (fluorescence units) | calcium entry signal, replicate 2 (fluorescence units) | entry to resting ratio | resting calcium signal, replicate 1 (fluorescence units) | resting calcium signal, replicate 2 (fluorescence units) | call |
| --- | --- | --- | --- | --- | --- | --- | --- |
| Scgbeta | 1 | 4.00e7 | 4.11e7 | – | 1.92e7 | 2.00e7 | inactive |
| CG32365 | 1 | 3.52e7 | 4.42e7 | – | 1.55e7 | 1.94e7 | inactive |
| CG32365 | 2 | 2.05e7 | 2.59e7 | – | 1.36e7 | 1.32e7 | inactive |
| CG32365 | 3 | 2.48e7 | 3.14e7 | – | 1.40e7 | 1.74e7 | inactive |
| CG4459 | 1 | 3.79e7 | 3.84e7 | – | 5.00e7 | 1.66e7 | inactive |
| CG17378 | 1 | 3.83e7 | 3.62e7 | – | 1.86e7 | 1.69e7 | inactive |
| att-ORFB + DPCoAC | 1 | 3.29e7 | 4.15e7 | – | 3.76e7 | 1.63e7 | inactive |
| Mkp3 | 1 | 4.27e7 | 5.67e7 | – | 2.08e7 | 3.75e7 | inactive |
| Mkp3 | 2 | 1.80e7 | 3.80e7 | – | 1.05e7 | 1.46e7 | inactive |
| DCX-EMAP | 1 | 5.32e7 | 6.33e7 | – | 2.53e7 | 2.45e7 | inactive |
| DCX-EMAP | 2 | 7.49e7 | 9.00e7 | – | 3.52e7 | 3.10e7 | inactive |
| CG13465 | 1 | 5.23e7 | 7.23e7 | – | 2.40e7 | 2.85e7 | inactive |
| ovo | 1 | 2.78e7 | 2.71e7 | – | 1.16e7 | 1.23e7 | inactive |
| ovo | 2 | 3.29e7 | 4.35e7 | – | 1.69e7 | 2.01e7 | inactive |
| CG40006 | 1 | 2.25e7 | 3.56e7 | – | 1.05e7 | 1.48e7 | inactive |
| CG40006 | 2 | 2.27e7 | 4.46e7 | – | 1.02e7 | 1.68e7 | inactive |
| CG40006 | 3 | 3.17e7 | 4.46e7 | – | 1.40e7 | 2.01e7 | inactive |
| CG40006 | 4 | 2.99e7 | 4.45e7 | – | 1.34e7 | 1.77e7 | inactive |
| CG32023 | 1 | 3.61e7 | 3.81e7 | – | 1.77e7 | 1.59e7 | inactive |
| tra | 1 | 3.95e7 | 5.21e7 | – | 1.91e7 | 2.06e7 | inactive |
| Cubn | 1 | 3.31e7 | 3.82e7 | – | 1.67e7 | 1.74e7 | inactive |
| Diedel | 1 | 4.14e7 | 5.44e7 | – | 1.90e7 | 2.06e7 | inactive |
| CG4168 | 1 | 2.90e7 | 3.24e7 | – | 1.64e7 | 1.65e7 | inactive |
| CG4168 | 2 | 2.78e7 | 2.96e7 | – | 1.54e7 | 1.55e7 | inactive |
| CG4168 | 3 | 4.42e7 | – | – | 2.09e7 | – | inactive |
| CG4168 | 4 | 2.38e7 | 2.69e7 | – | 1.28e7 | 1.22e7 | inactive |
| CG4168 | 5 | 4.35e7 | 3.40e7 | – | 2.02e7 | 1.61e7 | inactive |
| Fis1 | 1 | 3.04e7 | 3.47e7 | – | 1.60e7 | 1.65e7 | inactive |
| CG9072 | 1 | 4.15e7 | 2.27e7 | – | 2.15e7 | 1.17e7 | inactive |
| Spn43Ab | 1 | 3.21e7 | 3.88e7 | – | 1.57e7 | 1.75e7 | inactive |
| brv3 | 1 | 4.83e7 | 4.67e7 | 2 | 2.40e7 | 1.94e7 | inactive |
| CG8870 | 1 | 2.84e7 | 3.57e7 | – | 1.46e7 | 6.58e7 | inactive |
| CG31021 | 1 | 4.13e7 | 6.06e7 | – | 2.01e7 | 3.11e7 | inactive |
| ZnT33D | 1 | 3.64e7 | 2.61e7 | – | 1.75e7 | 1.33e7 | inactive |
| CG30016 | 1 | 5.46e7 | 4.46e7 | – | 2.41e7 | 1.81e7 | inactive |
| CG4332 | 1 | 3.66e7 | 4.19e7 | – | 1.71e7 | 1.88e7 | inactive |
| conv | 1 | 2.20e7 | 3.26e7 | – | 1.20e7 | 1.42e7 | inactive |
| Mpc1 | 1 | 2.15e7 | 2.29e7 | – | 9.90e6 | 9.40e6 | inactive |
| RhoGAP68F | 1 | 5.36e7 | 4.19e7 | – | 3.56e7 | 1.70e7 | inactive |
| Atg101 | 1 | 5.08e7 | 3.45e7 | – | 2.21e7 | 1.43e7 | inactive |
| CG31221 | 1 | 3.98e7 | 4.58e7 | – | 5.53e7 | 2.20e7 | inactive |
| CG31221 | 2 | 4.31e7 | 4.96e7 | – | 5.41e7 | 2.49e7 | inactive |
| RAF2 | 1 | 3.45e7 | 4.59e7 | – | 1.61e7 | 3.22e7 | inactive |
| RAF2 | 2 | 4.54e7 | 7.80e7 | – | 2.23e7 | 2.95e7 | inactive |
| CG3494 | 1 | 4.36e7 | 4.66e7 | – | 2.06e7 | 2.07e7 | inactive |
| mkg-p | 1 | 4.42e7 | 3.48e7 | – | 2.99e7 | 1.48e7 | inactive |
| Hex-t2 | 1 | 4.18e7 | 3.80e7 | – | 1.97e7 | 1.98e7 | inactive |
| CG10748 | 1 | 2.64e7 | 3.62e7 | – | 1.49e7 | 1.65e7 | inactive |
| CG4294 | 1 | 3.54e7 | – | – | 1.65e7 | – | inactive |
| Nubp2 | 1 | 2.60e7 | 4.66e7 | – | 1.22e7 | 1.74e7 | inactive |
| CG1812 | 1 | 2.60e7 | 3.08e7 | – | 1.24e7 | 1.27e7 | inactive |
| CG13018 | 1 | 3.46e7 | 3.56e7 | – | 1.65e7 | 1.65e7 | inactive |
| CG11836 | 1 | 4.99e7 | 4.66e7 | – | 2.36e7 | 1.82e7 | inactive |
| Cyfip | 1 | 3.83e7 | 4.34e7 | – | 1.60e7 | 1.90e7 | inactive |
| CG13581 | 1 | 4.40e7 | 5.37e7 | – | 2.12e7 | 2.36e7 | inactive |
| CG18870 | 1 | 5.92e7 | 5.40e7 | – | 2.76e7 | 2.24e7 | inactive |
| CG4318 | 1 | 4.68e7 | 6.31e7 | – | 2.25e7 | 2.92e7 | inactive |
| CG6333 | 1 | 4.07e7 | 4.35e7 | – | 1.75e7 | 1.81e7 | inactive |
